PubChem BioAssay AID1259254 – NCATS | 2017
Here is a random part of about 59,000 reagents tested. About 1,550 of them (2.6%) count as active. 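G2 share is only a proxy for re-replication; each gene was hit by three separate siRNAs, and active genes were retested.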 Raw values vary from plate to plate and are shown uncorrected. The numbers tell different reagents against one gene apart. No sequences are given here. Not given: the amount of reagent.

- Test: 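Gene knock-downs that lead to re-replication, shown by excess G2 DNA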 (primary screen)
- Cell system: human HCT116 colorectal cancer cells
- Knock-down reagent: single siRNA against human genes
- Timing: 3 days
- Measured: 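Nuclei stained with Hoechst and imaged; cell-cycle phase assigned by DNA content; G2 share scaled per plate, non-targeting siRNA 0%, GMNN siRNA 100%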
- Direction: G2 robust z-score and G2 cells, % of GMNN control: higher = more G2 cells, more excess DNA replication; raw share of cells in G2: higher = larger share of cells with G2 DNA content
- Hit rule: 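An siRNA counts as active if its G2 robust z-score lies at least 5 MADs above the screen median; here such calls match roughly 38% of GMNN control or more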

| gene | reagent no. | G2 robust z-score | G2 cells, % of GMNN control | raw share of cells in G2 (%) | Call |
| --- | --- | --- | --- | --- | --- |
| ZC3H15 | 1 | 1.23 | 11.6 | 6.9 | inactive |
| ZC3H15 | 2 | 0.519 | 6.62 | 8.9 | inactive |
| ZC3H15 | 3 | -0.516 | -0.665 | 3.42 | inactive |
| LINC01588 | 1 | 1.77 | 15.4 | 9.26 | inactive |
| LINC01588 | 2 | 1.14 | 11 | 7.3 | inactive |
| LINC01588 | 3 | -0.35 | 0.508 | 3.42 | inactive |
| FMN1 | 1 | -0.489 | -0.471 | 3.82 | inactive |
| FMN1 | 2 | 0.149 | 4.02 | 5.02 | inactive |
| FMN1 | 3 | -0.535 | -0.795 | 3.87 | inactive |
| FMN1 | 4 | -0.186 | 1.66 | 4.27 | inactive |
| FMN1 | 5 | -0.49 | -0.481 | 3.1 | inactive |
| FMN1 | 6 | 0.623 | 7.35 | 5.29 | inactive |
| PPP1R3B | 1 | 3.48 | 27.4 | 13.7 | inactive |
| PPP1R3B | 2 | -0.499 | -0.544 | 4.14 | inactive |
| PPP1R3B | 3 | -0.474 | -0.368 | 3.39 | inactive |

Laid out differently: 3 of the entries above
{"gene": "ZC3H15", "reagent no.": 2, "G2 robust z-score": 0.519, "G2 cells, % of GMNN control": 6.62, "raw share of cells in G2 (%)": 8.9, "Call": "inactive"}
{"gene": "ZC3H15", "reagent no.": 3, "G2 robust z-score": -0.516, "G2 cells, % of GMNN control": -0.665, "raw share of cells in G2 (%)": 3.42, "Call": "inactive"}
{"gene": "LINC01588", "reagent no.": 1, "G2 robust z-score": 1.77, "G2 cells, % of GMNN control": 15.4, "raw share of cells in G2 (%)": 9.26, "Call": "inactive"}

Additional results:
| gene | reagent no. | G2 robust z-score | G2 cells, % of GMNN control | raw share of cells in G2 (%) | Call |
| --- | --- | --- | --- | --- | --- |
| C1GALT1 | 1 | -1.08 | -4.64 | 4.4 | inactive |
| C1GALT1 | 2 | -0.567 | -1.02 | 4.07 | inactive |
| C1GALT1 | 3 | 1.11 | 10.8 | 8.84 | inactive |
| WDPCP | 1 | -0.636 | -1.51 | 3.28 | inactive |
| WDPCP | 2 | 2.2 | 18.5 | 11.5 | inactive |
| WDPCP | 3 | -0.751 | -2.32 | 2.52 | inactive |
| NEMP1 | 1 | -0.356 | 0.459 | 4.59 | inactive |
| NEMP1 | 2 | -0.229 | 1.36 | 4.53 | inactive |
| NEMP1 | 3 | 4.86 | 37.1 | 16.3 | inactive |
| APOF | 1 | 0.849 | 8.94 | 7.76 | inactive |
| APOF | 2 | 0.0222 | 3.12 | 6.18 | inactive |
| APOF | 3 | -0.905 | -3.4 | 2.72 | inactive |
| KCNN1 | 1 | -1.24 | -5.79 | 3.18 | inactive |
| KCNN1 | 2 | -0.378 | 0.305 | 4.88 | inactive |
| KCNN1 | 3 | -0.159 | 1.85 | 5.1 | inactive |
